PubChem BioAssay AID1671195 | Yale University | 2021
Assay: 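Genes whose knockdown alters LDL uptake in liver cancer cells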 (primary screen). Cell system: human Huh7 hepatoma cells. Reagent: siRNA pool against human genes, 18 nM. Time to read-out: about 2 to 2.5 days of knockdown, then 8 h LDL uptake. Conditions: DiI-labelled LDL at 30 µg/ml for 8 h, in lipoprotein-deficient serum medium. Detection: 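Fluorescent LDL signal imaged in cells, scaled to the plate median, robust z-score for each replicate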. Reading the numbers: robust z-score: higher = more LDL uptake after knockdown. Hit rule: 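Active when two or more replicates show a robust z-score above 2 or below -2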.
The whole screen tested about 22,000 reagents; this is an unselected part. About 1,510 of them (6.9%) were called active. 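Active includes knockdowns raising or lowering LDL uptake; positive z-scores mean more uptake, negative mean less.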

| gene | robust z-score, replicate 1 | robust z-score, replicate 2 | robust z-score, replicate 3 | Call |
| --- | --- | --- | --- | --- |
| LOC148915 (retired record) (GeneID 148915) | 0.329 | 0.457 | 0.605 | inactive |
| CFAP126 (GeneID 257177) | 1.83 | 1.37 | 1.49 | inactive |
| TRPM5 (GeneID 29850) | 0.604 | -0.268 | 0.514 | inactive |
| SPPL3 (GeneID 121665) | 1.01 | 0.809 | 0.688 | inactive |
| TMEM81 (GeneID 388730) | 1.55 | 1.1 | 1.52 | inactive |
| BAD (GeneID 572) | -0.697 | -0.652 | -0.49 | inactive |
| KHSRP (GeneID 8570) | 1.52 | 0.591 | 1.87 | inactive |
| NPFFR1 (GeneID 64106) | -1.35 | -1.28 | -1.36 | inactive |
| ONECUT2 (GeneID 9480) | -1.98 | -2.1 | -2.38 | active |
| SLC49A3 (GeneID 84179) | -0.283 | -0.0348 | -0.248 | inactive |
| FBXW12 (GeneID 285231) | -0.404 | -0.0324 | -0.0637 | inactive |
| CRHR1 (GeneID 1394) | -1.07 | -0.696 | -0.674 | inactive |
| SNHG32 (GeneID 50854) | -0.41 | -1.04 | -0.536 | inactive |
| SEMA6C (GeneID 10500) | -1.15 | 0.355 | -1.69 | inactive |
| OR6C1 (GeneID 390321) | 0.236 | 0.568 | 0.255 | inactive |
| USP54 (GeneID 159195) | -0.173 | -0.615 | -0.15 | inactive |
| MARCHF1 (GeneID 55016) | -1.06 | 0.708 | -0.00134 | inactive |
| RAD52 (GeneID 5893) | 0.485 | -0.404 | -0.38 | inactive |
| NLRP9 (GeneID 338321) | 2.53 | 2.07 | 3.02 | active |
| SCUBE3 (GeneID 222663) | 0.673 | 0.815 | 1.04 | inactive |
| MED29 (GeneID 55588) | 0.565 | 2.3 | 0.36 | inactive |
| ZSCAN26 (GeneID 7741) | 1.31 | 1.99 | 1.44 | inactive |
| SIRT2 (GeneID 22933) | 0.543 | 1.24 | -0.511 | inactive |
| LINC01344 (GeneID 400799) | 0.256 | -0.0937 | 0.029 | inactive |
| LOC440156 (retired record) (GeneID 440156) | 0.371 | -0.185 | 0.162 | inactive |
| MSGN1 (GeneID 343930) | 0.844 | 1.56 | 1.46 | inactive |
| C5orf46 (GeneID 389336) | -0.567 | -0.175 | -0.0788 | inactive |
| HIBADH (GeneID 11112) | 0.0219 | -0.439 | -0.304 | inactive |

7 consecutive records already listed:
| gene | robust z-score, replicate 1 | robust z-score, replicate 2 | robust z-score, replicate 3 | Call |
| --- | --- | --- | --- | --- |
| SCUBE3 (GeneID 222663) | 0.673 | 0.815 | 1.04 | inactive |
| MED29 (GeneID 55588) | 0.565 | 2.3 | 0.36 | inactive |
| ZSCAN26 (GeneID 7741) | 1.31 | 1.99 | 1.44 | inactive |
| SIRT2 (GeneID 22933) | 0.543 | 1.24 | -0.511 | inactive |
| LINC01344 (GeneID 400799) | 0.256 | -0.0937 | 0.029 | inactive |
| LOC440156 (retired record) (GeneID 440156) | 0.371 | -0.185 | 0.162 | inactive |
| MSGN1 (GeneID 343930) | 0.844 | 1.56 | 1.46 | inactive |

Next reagents follow.
| gene | robust z-score, replicate 1 | robust z-score, replicate 2 | robust z-score, replicate 3 | Call |
| --- | --- | --- | --- | --- |
| NSA2 (GeneID 10412) | -1.71 | 0.318 | -0.00469 | inactive |
| LOC399763 (retired record) (GeneID 399763) | -0.47 | -0.0391 | -0.39 | inactive |
| FABP1 (GeneID 2168) | 1.34 | -0.37 | -2.81 | inactive |
| FAM89B (GeneID 23625) | -1.03 | 0.504 | -1.58 | inactive |
| PPIA (GeneID 5478) | 0.184 | 1.77 | -0.251 | inactive |
| LOC388727 (retired record) (GeneID 388727) | 0.0535 | -0.236 | -0.353 | inactive |
| ACP4 (GeneID 93650) | -0.832 | -0.979 | -0.668 | inactive |
| PLXNA3 (GeneID 55558) | 0.162 | -0.967 | 0.0465 | inactive |
| RGS13 (GeneID 6003) | 0.492 | 0.142 | 0.09 | inactive |
| OR8D1 (GeneID 283159) | -0.104 | -0.268 | -0.0547 | inactive |
| LOC286408 (retired record) (GeneID 286408) | -0.819 | -0.819 | -0.71 | inactive |
| PRM2 (GeneID 5620) | -2.23 | -0.486 | -2.42 | active |
| LOC391770 (retired record) (GeneID 391770) | 0.851 | 0.565 | 0.0231 | inactive |
| KMT2D (GeneID 8085) | -0.366 | -1.22 | -0.869 | inactive |
| DELE1 (GeneID 9812) | -1.58 | -1.97 | -1.87 | inactive |
| LUC7L (GeneID 55692) | -2.04 | 0.19 | -0.503 | inactive |
| LYSMD2 (GeneID 256586) | 0.251 | 0.323 | 0.526 | inactive |
| FSTL4 (GeneID 23105) | -0.744 | -0.221 | -0.464 | inactive |
